{
  "source": "the supplement of paper PMC3334620",
  "note": "In all, about 33,000 sequences were measured (“E-score (-0.5 to 0.5)”: median about -0.0014, highest 2% from about 0.25 on). Some of the results follow.",
  "data": [
    {"molecular_target": "T1, Cad1 (UniProt P24813)", "T1 sequence": "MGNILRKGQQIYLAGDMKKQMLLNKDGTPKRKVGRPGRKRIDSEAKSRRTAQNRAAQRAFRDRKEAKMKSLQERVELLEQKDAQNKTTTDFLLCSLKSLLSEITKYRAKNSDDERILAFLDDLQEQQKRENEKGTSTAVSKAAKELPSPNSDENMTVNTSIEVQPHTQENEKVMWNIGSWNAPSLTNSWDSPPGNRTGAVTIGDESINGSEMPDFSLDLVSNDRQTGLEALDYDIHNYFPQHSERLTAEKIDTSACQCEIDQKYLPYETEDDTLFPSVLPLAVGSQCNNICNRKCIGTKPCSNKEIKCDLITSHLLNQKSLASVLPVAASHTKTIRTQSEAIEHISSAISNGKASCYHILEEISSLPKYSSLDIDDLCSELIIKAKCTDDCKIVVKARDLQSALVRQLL", "test": "PBM E-score (8-mer binding enrichment) (E-score (-0.5 to 0.5)); higher = stronger / more preferred TF binding", "settings": "protein concentration: 100 nM; construct: GST-full length", "protocol": "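Universal 'all 10-mer' protein binding microarrays (Agilent AMADID 015681) probed with GST-tagged S. cerevisiae TFs (full-length or DBD) made by in vitro transcription/translation (PURExpress), about 100-200 nM. Bound TF was detected with fluorescent anti-GST. Each ungapped 8-mer (which stands for itself and its reverse complement) is scored by the PBM enrichment score (E-score), a modified Wilcoxon-Mann-Whitney statistic from -0.5 to +0.5, computed with the Universal PBM Analysis Suite. Scale: above 0.35 generally sequence-specific binding.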", "values": [
      {"sequence": "AGACGAGA", "PBM E-score": 0.0185},
      {"sequence": "ATAGATCC", "PBM E-score": -0.015},
      {"sequence": "ACTGACAT", "PBM E-score": -0.0482},
      {"sequence": "CCTCTAAC", "PBM E-score": -0.0848},
      {"sequence": "GGCTAAAA", "PBM E-score": -0.0353},
      {"sequence": "ACGATCCA", "PBM E-score": -0.116},
      {"sequence": "TAATAACA", "PBM E-score": 0.15},
      {"sequence": "GCCATGTA", "PBM E-score": 0.107},
      {"sequence": "AACTTTAT", "PBM E-score": 0.0164},
      {"sequence": "AGACAAAG", "PBM E-score": 0.0401},
      {"sequence": "CAGTAATC", "PBM E-score": 0.164},
      {"sequence": "CCTAGGCG", "PBM E-score": -0.098},
      {"sequence": "TTACTAAA", "PBM E-score": 0.374},
      {"sequence": "GTATTCCA", "PBM E-score": -0.00627},
      {"sequence": "CGAAGTGC", "PBM E-score": 0.0965},
      {"sequence": "CGTGCAGC", "PBM E-score": 0.0278},
      {"sequence": "ATAATGGA", "PBM E-score": 0.0878},
      {"sequence": "ACACAACC", "PBM E-score": 0.00808},
      {"sequence": "GTCAGAAA", "PBM E-score": 0.0249},
      {"sequence": "CATGATTC", "PBM E-score": -0.0435},
      {"sequence": "GGCAAGTA", "PBM E-score": -0.149},
      {"sequence": "AATAAAAC", "PBM E-score": -0.0186},
      {"sequence": "ATACTATG", "PBM E-score": 0.00277},
      {"sequence": "ACATGCTG", "PBM E-score": 0.0632},
      {"sequence": "GGGGGCCA", "PBM E-score": -0.411},
      {"sequence": "ACCCATTC", "PBM E-score": -0.0248},
      {"sequence": "CTACACAC", "PBM E-score": -0.0573},
      {"sequence": "AATAAGCG", "PBM E-score": 0.117},
      {"sequence": "CCCGTAGC", "PBM E-score": -0.186},
      {"sequence": "AATTCACA", "PBM E-score": 0.138},
      {"sequence": "CAACGTTA", "PBM E-score": 0.168},
      {"sequence": "GACGGGGC", "PBM E-score": -0.0773},
      {"sequence": "CCTGGCAA", "PBM E-score": -0.0805},
      {"sequence": "GGCCTCGA", "PBM E-score": 0.0388},
      {"sequence": "AGCTCCAA", "PBM E-score": 0.0502},
      {"sequence": "AGGCGCGA", "PBM E-score": 0.0546},
      {"sequence": "ATCAACCC", "PBM E-score": 0.0896},
      {"sequence": "GCTTCCCC", "PBM E-score": -0.337},
      {"sequence": "TCAAGGGA", "PBM E-score": -0.0776},
      {"sequence": "ATTACCGC", "PBM E-score": 0.066},
      {"sequence": "GTCACTAA", "PBM E-score": 0.145},
      {"sequence": "CATTTCCG", "PBM E-score": 0.0769},
      {"sequence": "TAGTCTCA", "PBM E-score": -0.0308},
      {"sequence": "AAGGGTGC", "PBM E-score": -0.0474},
      {"sequence": "ACCCCACA", "PBM E-score": -0.0413},
      {"sequence": "CTCGGAGC", "PBM E-score": 0.137},
      {"sequence": "AACCTACT", "PBM E-score": 0.107},
      {"sequence": "CAAAAAGA", "PBM E-score": 0.0675},
      {"sequence": "CGTTAGGC", "PBM E-score": -0.104},
      {"sequence": "ACCCAGAG", "PBM E-score": -0.171},
      {"sequence": "CTACGACA", "PBM E-score": 0.00715},
      {"sequence": "CCCGCCAG", "PBM E-score": -0.0572},
      {"sequence": "AGAGTTCA", "PBM E-score": -0.132},
      {"sequence": "CATTTGGA", "PBM E-score": 0.0851},
      {"sequence": "AGGGCTGG", "PBM E-score": 0.0297},
      {"sequence": "AACATATA", "PBM E-score": 0.0078},
      {"sequence": "CTAAGTTC", "PBM E-score": 0.0252},
      {"sequence": "CGGGGGGA", "PBM E-score": -0.484},
      {"sequence": "GACCCGTC", "PBM E-score": -0.231},
      {"sequence": "AATGTCTA", "PBM E-score": 0.0795},
      {"sequence": "TTGCAAAA", "PBM E-score": 0.179},
      {"sequence": "GGAGATCC", "PBM E-score": -0.105},
      {"sequence": "CAAGCAAG", "PBM E-score": -0.156},
      {"sequence": "AATGTTAA", "PBM E-score": 0.141},
      {"sequence": "AGACCGCA", "PBM E-score": -0.157},
      {"sequence": "ACTGCGAT", "PBM E-score": 0.0409},
      {"sequence": "CACCGACC", "PBM E-score": -0.0907},
      {"sequence": "CCTTATGA", "PBM E-score": 0.146},
      {"sequence": "GGAGCGCA", "PBM E-score": -0.112},
      {"sequence": "CAAGTTAC", "PBM E-score": 0.00436},
      {"sequence": "CCTTTCAG", "PBM E-score": -0.0562},
      {"sequence": "GGACAGAC", "PBM E-score": 0.0236},
      {"sequence": "CGCGACAC", "PBM E-score": 0.0904},
      {"sequence": "ATAGGCGG", "PBM E-score": 0.119},
      {"sequence": "CGCTTCCA", "PBM E-score": 0.036},
      {"sequence": "GTTTGGAA", "PBM E-score": -0.0186},
      {"sequence": "ATTTTACC", "PBM E-score": 0.231},
      {"sequence": "CGTGAGCA", "PBM E-score": -0.0633},
      {"sequence": "CAATACCG", "PBM E-score": -0.0276},
      {"sequence": "ACTTCTCA", "PBM E-score": 0.0697},
      {"sequence": "GACAGTGC", "PBM E-score": 0.0176},
      {"sequence": "CGAGGAAG", "PBM E-score": -0.213},
      {"sequence": "AGTGCGTA", "PBM E-score": -0.0932},
      {"sequence": "GAAGGATC", "PBM E-score": -0.328},
      {"sequence": "ACCACGTA", "PBM E-score": -0.0327},
      {"sequence": "GCGATTAA", "PBM E-score": 0.123},
      {"sequence": "CGTGTCAA", "PBM E-score": 0.083},
      {"sequence": "CAGTCCCG", "PBM E-score": -0.165},
      {"sequence": "CGTGCTAG", "PBM E-score": -0.0886},
      {"sequence": "GAGGCGTA", "PBM E-score": -0.0365},
      {"sequence": "AACTATAT", "PBM E-score": 0.176},
      {"sequence": "AGTAGCTG", "PBM E-score": 0.0399},
      {"sequence": "AAGATTTC", "PBM E-score": 0.0635},
      {"sequence": "ACCATTTG", "PBM E-score": 0.199},
      {"sequence": "ATCATCTG", "PBM E-score": 0.0139},
      {"sequence": "GAACTAAA", "PBM E-score": 0.0923},
      {"sequence": "AGCTTGAA", "PBM E-score": 0.0342},
      {"sequence": "TCAGACCA", "PBM E-score": -0.062},
      {"sequence": "GATGTGTA", "PBM E-score": -0.0278},
      {"sequence": "CCATTGGA", "PBM E-score": 0.00597},
      {"sequence": "CGACGGAC", "PBM E-score": 0.105},
      {"sequence": "AAAATGAA", "PBM E-score": 0.0129},
      {"sequence": "CTTTGCGC", "PBM E-score": 0.179},
      {"sequence": "CATTTCGC", "PBM E-score": -0.15},
      {"sequence": "ATCAAGCG", "PBM E-score": 0.0519},
      {"sequence": "AGATCTTA", "PBM E-score": 0.1},
      {"sequence": "GCGCATTA", "PBM E-score": 0.265},
      {"sequence": "CCGACGGC", "PBM E-score": -0.156},
      {"sequence": "CGTGATGC", "PBM E-score": -0.0888},
      {"sequence": "CGGGATGC", "PBM E-score": -0.137}
    ]}
  ]
}
